Results published in patent US20130280758A1 (Regeneron, published 2013).
Results are given in words; binding and its absence hold for the method and conditions named. Some binding calls cover weakened binding; strength is not graded here. One block for each binder: values may come before it.

Assays:
[1] = target: T1, rat Tie-1 (rTie-1), as used in BIAcore analysis (rat) (UniProt F7F3P6); experiment: BIAcore, sequential binding
T1 sequence: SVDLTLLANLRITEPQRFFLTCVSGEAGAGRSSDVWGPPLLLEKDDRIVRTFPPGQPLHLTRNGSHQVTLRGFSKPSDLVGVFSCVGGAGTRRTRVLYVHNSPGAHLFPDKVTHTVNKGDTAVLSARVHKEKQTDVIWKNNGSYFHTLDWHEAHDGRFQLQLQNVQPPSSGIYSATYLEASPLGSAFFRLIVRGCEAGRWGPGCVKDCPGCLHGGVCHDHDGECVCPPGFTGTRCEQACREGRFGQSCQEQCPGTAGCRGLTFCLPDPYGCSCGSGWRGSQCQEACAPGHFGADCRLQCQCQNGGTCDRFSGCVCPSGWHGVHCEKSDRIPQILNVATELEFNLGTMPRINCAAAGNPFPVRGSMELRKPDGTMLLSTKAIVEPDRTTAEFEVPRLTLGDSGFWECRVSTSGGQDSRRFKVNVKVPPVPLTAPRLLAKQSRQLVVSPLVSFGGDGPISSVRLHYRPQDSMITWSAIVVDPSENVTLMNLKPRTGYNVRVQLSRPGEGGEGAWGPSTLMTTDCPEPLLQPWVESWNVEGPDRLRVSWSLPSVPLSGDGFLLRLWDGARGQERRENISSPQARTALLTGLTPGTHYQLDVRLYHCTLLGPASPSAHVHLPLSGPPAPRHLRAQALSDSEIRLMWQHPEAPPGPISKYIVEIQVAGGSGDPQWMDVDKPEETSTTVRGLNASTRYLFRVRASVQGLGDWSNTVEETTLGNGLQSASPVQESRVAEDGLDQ

[2] = target: rat Tie-2 (rTie-2), as used in BIAcore analysis (rat); experiment: BIAcore
[3] = target: rat Tie-2 (rTie-2), as used in BIAcore analysis (rat); experiment: BIAcore, sequential binding

binding [1]: binds
B1: 2-1G3 antibody (anti-rat Tie-1 mouse hybridoma antibody) (antibody, V domains shown)
VH: EVKLVESGGGLVKPGGSLKLSCAASGFTFSSYGMSWVRQTPEKRLEWVATISGGGSYTYYPDSVKGRFTISRDNAKNNLYLQMSSLRSEDTALYYCARRRYDPYAMDYWGQGTSVTVSS
VL: DIQMTQTTSSLSASLGDRVTISCRASQDISNYLNWYQQKPDGTVKLLIYYISRLHSGVPSRFSGSGSGTDYSLTISNLEQEDIATYFCQQGNTLPYTFGGGTKLEIKR

binding [1]: binds
B2: 1-1F11 antibody (anti-rat Tie-1 mouse hybridoma antibody) (antibody, V domains shown)
VH: DVQLVESGGGLVQPGGSRKLSCAASGFTFSSFGMHWVRQAPEKGLEWVAYISSGSSNIYYADTVKGRFTISRDNPKNTLFLQMTSLRSEDTAMYYCARGYDYDRGYYAIDYWGQGTSVTVSS
VL: DIQMTQSPASLSASVGETVTITCRASENIYSNLAWYQQKQGKSPQLLVYGATNLADGVPSRFSGSGSGTQYSLKINSLQSEDFGSYYCQHFWGTPWTLGGGTKLEIKR

binding [2]: binds
binding [3]: binds
B3: B2 antibody (anti-rat Tie-2 mouse hybridoma antibody) (antibody, V domains shown)
VH: QVKLEESGPGLVKPSQSLSLTCTVTGYSITSDYAWNWIRQFPGNKLEWMGYINYSGITSYNPSLKSRISITRDTSKNQFFLQLNSVTAEDTATYYCARYYGSSYNYYGMDYWGQGTSVTVSS
VL: DIVMTQSPKSMSMSVGERVTLNCKASENVGTYISWYQQKPDQSPKLLIYGASNRYPGVPDRFTGSGSATDFTLTISSLQAEDLADYHCGQGYTYLTFGAGTKLELKR

binding [2]: binds
binding [3]: binds
B4: A12A antibody (anti-rat Tie-2 mouse hybridoma antibody) (antibody, V domains shown)
VH: EVKLQESGAELMKPGASVKISCKATGYTFSSYWIEWVKQRPGHGLEWIGEILPGSGSTNYNEKFKGKATFTADTFSNTAYMQLSSLTSEDSAVYYCARFDGYLPFDHWGQGTTLTVSS
VL: DIVLTQSPASLAVSLGQRATISCRASKSVITSGYSYMHWYQQKPGQPPQLLIYLASNLESGVPARFSGSGSGTDFTLNIHPVEEEDAATYYCHHSRELPRTFGGGTKLEIKR
